In patent publication US5235843A, “Method and apparatus for analyzing volatile chemical components in a liquid” (The Dow Chemical Company, priority 1991, dated 1993):

Experiment: Detection limit in air / quantitation limit in water by laboratory gas chromatograph
Settings: for LOQ in water: extrapolated quantitation limit in water, signal-to-noise ratio multiplied by ten; for LOD in air: measured detection limit in air, three times signal-to-noise ratio, laboratory gas chromatograph

SMILES | LOQ in water | LOD in air
ClC(Cl)Cl [CHLOROFORM] | 1.4 ng/mL | 2.7 ppb - v/v
CC(Cl)Cl [1,1-DICHLOROETHANE] | 130 ng/mL | 270 ppb - v/v
ClC(Cl)C(Cl)Cl [1,1,2,2-TETRACHLOROETHANE] | 17 ng/mL | 10 ppb - v/v
Cl/C=C/Cl [t-1,2-DICHLOROETHYLENE] | 42 ng/mL | 200 ppb - v/v
BrC(Br)Br [BROMOFORM] | 16 ng/mL | 9.4 ppb - v/v
Clc1ccccc1Cl [1,2-DICHLOROBENZENE] | 170 ng/mL | 90 ppb - v/v
ClC=C(Cl)Cl [TRICHLOROETHYLENE] | 0.94 ng/mL | 2.8 ppb - v/v
ClC(Cl)Br [BROMODICHLOROMETHANE] | 1.2 ng/mL | 3.0 ppb - v/v
ClC(Cl)(Cl)Cl [CARBON TETRACHLORIDE] | 0.23 ng/mL | 0.54 ppb - v/v
Cl/C=C\CCl [c-1,3 DICHLOROPROPENE] | 28 ng/mL | 30 ppb - v/v
ClCCl [METHYLENE CHLORIDE] | 9.2 ng/mL | 22 ppb - v/v
C=C(Cl)Cl [[…]] | 1.9 ng/mL | 6.8 ppb - v/v
CC(Cl)(Cl)Cl [1,1,-TRICHLOROETHANE] | 1.2 ng/mL | 2.5 ppb - v/v
Clc1ccccc1 [CHLOROBENZENE] | 260 ng/mL | 310 ppb - v/v
Cl/C=C/CCl [t-1,3-DICHLOROPROPENE] | 12 ng/mL | 26 ppb - v/v
CC(Cl)CCl (stereo not drawn) [1,2-DICHLOROPROPANE] | 54 ng/mL | 120 ppb - v/v
ClCCCl [1,2-DICHLOROETHANE] | 37 ng/mL | 76 ppb - v/v
ClC(Cl)=C(Cl)Cl [PERCHLOROETHYLENE] | 0.48 ng/mL | 0.69 ppb - v/v
ClC(Br)Br [CHLORODIBROMOMETHANE] | 4.2 ng/mL | 4.6 ppb - v/v
ClCC(Cl)Cl [1,1,2-TRICHLOROETHANE] | 13 ng/mL | 15 ppb - v/v
CBr [METHYL BROMIDE] | 6.0 ng/mL | 137 ppb - v/v
